Values from PubChem BioAssay AID1259308 (NCATS, 2017)
Test: 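Genes whose loss raises luciferase production in HEK293 cells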 (primary screen). Cell system: human HEK293 embryonic kidney cells stably expressing firefly luciferase (HEK-CMV-Luc2-Hygro). Reagent: single siRNA against human genes, 0.8 pmol siRNA per well. Time to read-out: 72 h. Measured: 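Luciferase light (ONE-Glo) measured on one replicate plate set and viability (CellTiter-Glo) on the other, scaled to a negative control siRNA, with robust z-scores and luciferase per cell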. Direction: total luciferase, z-score and total luciferase, % of control: higher = more reporter protein produced. Hit rule: 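Active when the median/MAD z-score for overall luciferase is greater than 3; a gene was taken forward for validation with new siRNAs if at least two of its three siRNAs passed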. Meaning of the calls: active = raised luciferase; inactive = no rise.
This is a random part of about 59,000 reagents tested. About 1,510 of them (2.6%) count as active. 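Calls use total luciferase alone and ignore viability, so some active siRNAs may act by altering cell number.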 The numbers tell different reagents against one gene apart. Not all columns of the deposit are shown.

no.	Target gene	siRNA no.	total luciferase, z-score	total luciferase, % of control	call
1	NKPD1 (GeneID 284353)	1	1.38	109	inactive
2	NKPD1 (GeneID 284353)	2	-0.253	76.9	inactive
3	NKPD1 (GeneID 284353)	3	-0.486	72.2	inactive
4	PLAC8L1 (GeneID 153770)	1	-0.0573	80.7	inactive
5	PLAC8L1 (GeneID 153770)	2	-0.676	68.4	inactive
6	PLAC8L1 (GeneID 153770)	3	1.11	104	inactive
7	C11orf40 (GeneID 143501)	1	0.831	98.4	inactive
8	C11orf40 (GeneID 143501)	2	2.95	141	inactive
9	C11orf40 (GeneID 143501)	3	0.678	95.4	inactive
10	CYFIP1 (GeneID 23191)	1	-1.77	46.7	inactive
11	CYFIP1 (GeneID 23191)	2	-1.08	60.5	inactive
12	CYFIP1 (GeneID 23191)	3	-2.07	40.6	inactive
13	GLI4 (GeneID 2738)	1	-0.976	62.5	inactive
14	GLI4 (GeneID 2738)	2	0.789	97.6	inactive
15	GLI4 (GeneID 2738)	3	-0.171	78.5	inactive
16	ADCY1 (GeneID 107)	1	-0.783	66.3	inactive
17	ADCY1 (GeneID 107)	2	-0.903	63.9	inactive
18	ADCY1 (GeneID 107)	3	1.35	109	inactive
19	DDX53 (GeneID 168400)	1	-0.499	72	inactive
20	DDX53 (GeneID 168400)	2	0.591	93.6	inactive
21	DDX53 (GeneID 168400)	3	-0.851	65	inactive
22	STXBP5 (GeneID 134957)	1	-0.125	79.4	inactive
23	STXBP5 (GeneID 134957)	2	0.26	87.1	inactive
24	STXBP5 (GeneID 134957)	3	0.547	92.8	inactive
25	LIG1 (GeneID 3978)	1	1.41	110	inactive
26	LIG1 (GeneID 3978)	2	-0.527	71.4	inactive
27	LIG1 (GeneID 3978)	3	0.219	86.2	inactive
28	MAT1A (GeneID 4143)	1	0.185	85.6	inactive
29	MAT1A (GeneID 4143)	2	0.536	92.6	inactive
30	MAT1A (GeneID 4143)	3	1.98	121	inactive
31	ERP44 (GeneID 23071)	1	0.012	82.1	inactive
32	ERP44 (GeneID 23071)	2	4.95	180	active
33	ERP44 (GeneID 23071)	3	-0.539	71.2	inactive
34	BBS1 (GeneID 582)	1	-0.999	62	inactive
35	BBS1 (GeneID 582)	2	2.05	123	inactive
36	BBS1 (GeneID 582)	3	2.12	124	inactive
37	CBR3 (GeneID 874)	1	-1.39	54.3	inactive
38	CBR3 (GeneID 874)	2	-0.225	77.4	inactive
39	CBR3 (GeneID 874)	3	0.287	87.6	inactive

Next part; the last 8 above are carried over.
no.	Target gene	siRNA no.	total luciferase, z-score	total luciferase, % of control	call
32	ERP44 (GeneID 23071)	2	4.95	180	active
33	ERP44 (GeneID 23071)	3	-0.539	71.2	inactive
34	BBS1 (GeneID 582)	1	-0.999	62	inactive
35	BBS1 (GeneID 582)	2	2.05	123	inactive
36	BBS1 (GeneID 582)	3	2.12	124	inactive
37	CBR3 (GeneID 874)	1	-1.39	54.3	inactive
38	CBR3 (GeneID 874)	2	-0.225	77.4	inactive
39	CBR3 (GeneID 874)	3	0.287	87.6	inactive
40	XRCC3 (GeneID 7517)	1	1.39	110	inactive
41	XRCC3 (GeneID 7517)	2	-0.561	70.7	inactive
42	XRCC3 (GeneID 7517)	3	-0.278	76.4	inactive
43	XRCC3 (GeneID 7517)	4	1.32	108	inactive
44	XRCC3 (GeneID 7517)	5	0.675	95.3	inactive
45	XRCC3 (GeneID 7517)	6	-1.57	50.8	inactive
46	ZNF750 (GeneID 79755)	1	-0.358	74.8	inactive
47	ZNF750 (GeneID 79755)	2	-1.41	53.8	inactive
48	ZNF750 (GeneID 79755)	3	-0.759	66.8	inactive
49	ZNF566 (GeneID 84924)	1	0.907	99.9	inactive
50	ZNF566 (GeneID 84924)	2	-0.3	75.9	inactive
51	ZNF566 (GeneID 84924)	3	0.776	97.3	inactive
52	GNS (GeneID 2799)	1	-0.0105	81.7	inactive
53	GNS (GeneID 2799)	2	0.319	88.2	inactive
54	GNS (GeneID 2799)	3	2.08	123	inactive
55	LRRC45 (GeneID 201255)	1	-1.15	59	inactive
56	LRRC45 (GeneID 201255)	2	-0.418	73.6	inactive
57	LRRC45 (GeneID 201255)	3	-0.398	74	inactive
58	LOC644277 (GeneID 644277)	1	-2.76	26.9	inactive
59	LOC644277 (GeneID 644277)	2	-0.241	77.1	inactive
60	LOC644277 (GeneID 644277)	3	0.604	93.9	inactive
61	LOC441052 (GeneID 441052)	1	0.87	99.2	inactive
62	LOC441052 (GeneID 441052)	2	0	81.9	inactive
63	LOC441052 (GeneID 441052)	3	0.0562	83	inactive
64	TBK1 (GeneID 29110)	1	1.02	102	inactive
65	TBK1 (GeneID 29110)	2	0.249	86.8	inactive
66	TBK1 (GeneID 29110)	3	0.79	97.6	inactive
67	ZNF430 (GeneID 80264)	1	0.431	90.5	inactive
68	ZNF430 (GeneID 80264)	2	-0.1	79.9	inactive
69	ZNF430 (GeneID 80264)	3	-1.7	48.1	inactive
70	ME1 (GeneID 4199)	1	-0.515	71.7	inactive
71	ME1 (GeneID 4199)	2	1.84	119	inactive
72	ME1 (GeneID 4199)	3	0.315	88.1	inactive
73	GJB2 (GeneID 2706)	1	0.282	87.5	inactive
74	GJB2 (GeneID 2706)	2	-0.311	75.7	inactive
75	GJB2 (GeneID 2706)	3	-0.116	79.6	inactive
